Measurements from PubChem BioAssay AID504834 (National Center for Advancing Translational Sciences (NCATS), 2011).
The campaign covered roughly 320,000 compounds. About 22,000 (6.9%) were called active. The inconclusive results got no clear call from the source; some entries with a clear call stand among them for comparison. The call rests on the fitted dose curve; in most records, active means well fitted inhibition curve with a large enough effect; inconclusive means small, poorly fitted or top-dose-only effect, or another doubt; inactive means no such curve, though single readings can be large or run the other way. Potencies of inconclusive entries are doubtful fits and often do not repeat.

assay: Primary qHTS for delayed death inhibitors of the malarial parasite plastid, 96 hour incubation; conditions: P. falciparum luciferase reporter growth; series mostly up to 28.7 µM
Outline: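 96 h incubation, 37 C, 5% CO2, of luciferase-reporter P. falciparum-infected RBCs (2% hematocrit, 0.05% parasitemia final) with test compounds; endpoint luminescence.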
Potency means the concentration at half of the fitted maximal effect.

Compound	Potency
COC(=O)CCC(=O)N(C)CC1CCCN(CCc2cccc(C(F)(F)F)c2)C1 (stereo not drawn)	inconclusive: 2.08 µM [inhibitor, full curve, poor fit]
C=CCNC(=O)C1=NOC(CNC(=O)c2c(-c3ccccc3Cl)noc2C)C1 (stereo not drawn)	inactive
CC(CN(C)C)CN1c2ccccc2CCc2ccccc21 (stereo not drawn)	inconclusive: 18.5 µM [inhibitor, single point]
CCN(C(=O)c1ccc2c(=O)n3c(nc2c1)CCCCC3)c1ccccc1C	inconclusive: 5.22 µM [inhibitor, partial curve, poor fit]
CC(C)n1nc(C(=O)OCC(=O)N2CC(=O)Nc3ccccc32)c2ccccc2c1=O	inconclusive: 20.8 µM [inhibitor, single point]
C=Cc1ccc(Cn2c(=O)n(CCCOC)c(=O)c3sccc32)cc1	inconclusive: 18.5 µM [inhibitor, single point]
O=S(=O)(NCC1(N2CCOCC2)CCCCC1)c1ccccc1Cl	inconclusive: 20.8 µM [inhibitor, partial curve, poor fit]
COc1cccc(C2c3[nH]c4ccccc4c3C[C@H]3C(=O)N(c4ccccc4C(=O)N4CCCC4C(=O)O)C(=O)N23)c1 (stereo partly drawn)	inconclusive: 18.5 µM [inhibitor, single point]
CC(C)(C)OC(=O)NCCCCCO	inactive
CCCCc1ccc(NC(=O)CC(C)(C)C)cc1	inconclusive: 18.5 µM [inhibitor, single point]
CC(C)COC(=O)COc1cc(Cl)c(Cl)cc1Cl	inactive
C=CCNC(=O)c1oc2ccc(S(=O)(=O)N(CC)CC)cc2c1C	active: 10.4 µM
CCOc1ccc(/C=N/n2c(C)nc3ccccc3c2=O)cc1	inactive
Cc1cc(C(=O)OCC(=O)Nc2ccc(F)cc2)c(C)n1C1CC1	inconclusive: 18.5 µM [inhibitor, single point]
CCCCn1c(N)c(N(CC(C)C)C(=O)C2CCCN(C(=O)c3ccc(Cl)cc3)C2)c(=O)[nH]c1=O (stereo not drawn)	inconclusive: 11.7 µM [inhibitor, partial curve, poor fit]
Cc1cccc(NC(=O)CNC(=O)CCc2nc3sc4c(c3c(=O)[nH]2)CCCC4)c1C	inactive
COc1cccc(-c2cc3nc4c(c(NCC(C)(C)CN(C)C)n3n2)CCCC4)c1	inactive
CCCOc1ccc(/C=N/NC(=S)Nc2ccccc2[N+](=O)[O-])c(O)c1	inconclusive: 4.15 µM [inhibitor, partial curve, poor fit]
CCOC(=O)C1=C(C)C2C3C(=O)N(c4ccc(C)cc4C)C(=O)C3C1(C)C1C(=O)N(c3ccc(C)cc3C)C(=O)C21 (stereo not drawn)	inconclusive: 1.31 µM [inhibitor, full curve, poor fit]
COc1ccc(/C=C/C(=O)NC(=S)NNC(=O)c2c(-c3ccccc3)noc2C)cc1	inconclusive: 13.1 µM [inhibitor, single point]
Cc1cc(C(=O)CSc2nnc(-c3ccccc3)n2Cc2ccc3c(c2)OCO3)c(C)n1C	inconclusive: 7.38 µM [inhibitor, single point]
O=C(CC1S/C(=N/N=C2CCCCCC2)NC1=O)Nc1ccccc1F (stereo not drawn)	inconclusive: 11.7 µM [inhibitor, single point]

Random excerpt: 2 records from the list
Compound	Potency
CCCCn1c(N)c(N(CC(C)C)C(=O)C2CCCN(C(=O)c3ccc(Cl)cc3)C2)c(=O)[nH]c1=O (stereo not drawn)	inconclusive: 11.7 µM [inhibitor, partial curve, poor fit]
CCCOc1ccc(/C=N/NC(=S)Nc2ccccc2[N+](=O)[O-])c(O)c1	inconclusive: 4.15 µM [inhibitor, partial curve, poor fit]

Carrying on:

Compound	Potency
CN1C(=O)C(C)(C)c2cc(S(=O)(=O)N3CCC(C(=O)NCc4ccc(Cl)cc4)CC3)ccc21	inconclusive: 18.5 µM [inhibitor, partial curve, poor fit]
CCOC(=O)c1ccc(N2C(=O)CC(N3CC(C)OC(C)C3)C2=O)cc1 (stereo not drawn)	inactive
COCCOc1ccc(C(F)(F)F)cc1NC(=O)CN1C(=O)NC(C)(c2ccc3c(c2)OCO3)C1=O (stereo not drawn)	inconclusive: 10.4 µM [inhibitor, single point]
CCCOc1ccc(CSC(=N)N)cc1C(=O)OC	inconclusive: 16.5 µM [inhibitor, single point]
O=C(c1ccc2c(c1)OCO2)N1CCN(c2ccc(Cl)cc2)CC1	inconclusive: 18.5 µM [inhibitor, partial curve, poor fit]
O=C1CCC(C(=O)N2CCC(CO)CC2)CN1Cc1ccc(Cl)cc1 (stereo not drawn)	inactive
Cc1c(Cl)cccc1-n1c(SCC(=O)N2CCC(C(=O)O)CC2)nc2ccccc2c1=O	inconclusive: 10.4 µM [inhibitor, single point]
CCOC(=O)COc1ccc(C2NC(C(=O)O)CS2)cc1 (stereo not drawn)	inconclusive: 4.15 µM [inhibitor, partial curve, poor fit]
Cc1nnsc1NC(=O)OCC(C)(C)C	inactive
O=C(Nc1ccc2[nH]ncc2c1)C1CCC1	inconclusive: 5.86 µM [inhibitor, partial curve, poor fit]
O=C(CSc1ccccc1)Nc1ccc(C(=O)Nc2ccc(O)cc2)cc1	inactive
COC(=O)c1[nH]c2ccc(Br)cc2c1NC(=O)Oc1ccccc1	inactive
COc1ccccc1N(Cc1cc(=O)[nH]c2ccccc12)C(=O)c1ccc([N+](=O)[O-])cc1	inconclusive: 9.28 µM [inhibitor, partial curve, poor fit]
O=C(C[n+]1cccc2ccccc21)c1ccc(NC(=O)c2ccccc2)cc1	inconclusive: 11.7 µM [inhibitor, partial curve]
CCOc1ccc(S(=O)(=O)NCc2ccco2)c2ccccc12	inconclusive: 9.28 µM [inhibitor, single point]
O=C1CCC(=O)N1CN(C(=O)c1ccco1)c1ccc(Cl)c(Cl)c1	active: 10.4 µM
Cc1ccc(NC(=O)COC(=O)c2c(C)nn(-c3ccccc3)c2C)cc1	inconclusive: 14.7 µM [inhibitor, partial curve, poor fit]
N#CC1(NC(=O)COc2cc(F)ccc2[N+](=O)[O-])CCCCC1	inconclusive: 18.5 µM [inhibitor, single point]
COc1ccc(N2CC(C(=O)N/N=C/c3cc([N+](=O)[O-])ccc3O)CC2=O)cc1 (stereo not drawn)	inactive
COc1ccc2nc(NC(=O)c3ccccc3[N+](=O)[O-])sc2c1	inactive
COc1ccc(/C=N/NC(=O)Cc2ccc(Cl)cc2)cc1OC	inconclusive: 18.5 µM [inhibitor, single point]
